Measured values: the supplement of paper PMC12819154, “High-throughput peptide-centric local stability assay extends protein–ligand identification to membrane proteins, tissues and bacteria” (Nature Structural & Molecular Biology, 2025)
The other results are listed elsewhere or left out. Most values lie at the level of the controls, where differences are scatter.

Sequences of proteins named here, by UniProt entry; tags and fusion partners are left off. A change or cut given only in a name is not applied to a line headed by its entry.
UniProt P98086: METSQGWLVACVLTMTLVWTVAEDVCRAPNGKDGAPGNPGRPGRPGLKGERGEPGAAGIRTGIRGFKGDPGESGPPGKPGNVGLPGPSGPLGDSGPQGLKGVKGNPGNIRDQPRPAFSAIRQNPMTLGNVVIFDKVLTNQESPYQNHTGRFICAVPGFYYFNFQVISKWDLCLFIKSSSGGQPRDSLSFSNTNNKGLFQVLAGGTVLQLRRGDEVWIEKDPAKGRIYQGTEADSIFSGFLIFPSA
UniProt P97303: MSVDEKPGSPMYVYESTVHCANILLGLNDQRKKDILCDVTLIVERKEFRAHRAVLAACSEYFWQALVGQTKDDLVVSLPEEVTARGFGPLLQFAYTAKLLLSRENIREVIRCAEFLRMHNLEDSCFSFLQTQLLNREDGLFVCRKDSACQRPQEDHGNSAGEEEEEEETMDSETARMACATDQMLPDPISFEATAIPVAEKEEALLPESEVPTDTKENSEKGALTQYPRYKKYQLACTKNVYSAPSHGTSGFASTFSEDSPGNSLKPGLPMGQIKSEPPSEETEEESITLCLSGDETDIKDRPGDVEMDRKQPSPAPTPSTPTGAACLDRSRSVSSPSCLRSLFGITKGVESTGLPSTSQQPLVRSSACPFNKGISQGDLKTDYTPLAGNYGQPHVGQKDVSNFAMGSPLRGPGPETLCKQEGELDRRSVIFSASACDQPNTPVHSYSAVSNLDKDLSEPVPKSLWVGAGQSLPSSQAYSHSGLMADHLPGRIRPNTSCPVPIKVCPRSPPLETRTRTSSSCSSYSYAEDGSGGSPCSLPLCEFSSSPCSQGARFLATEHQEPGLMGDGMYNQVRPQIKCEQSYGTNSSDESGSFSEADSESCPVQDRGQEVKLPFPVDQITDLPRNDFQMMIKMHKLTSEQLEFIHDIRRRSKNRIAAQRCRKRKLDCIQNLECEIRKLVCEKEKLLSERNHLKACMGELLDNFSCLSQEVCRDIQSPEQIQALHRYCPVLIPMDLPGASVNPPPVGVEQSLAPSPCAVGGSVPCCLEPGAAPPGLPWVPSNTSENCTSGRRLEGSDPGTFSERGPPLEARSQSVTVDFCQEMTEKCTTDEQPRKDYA
UniProt P70398: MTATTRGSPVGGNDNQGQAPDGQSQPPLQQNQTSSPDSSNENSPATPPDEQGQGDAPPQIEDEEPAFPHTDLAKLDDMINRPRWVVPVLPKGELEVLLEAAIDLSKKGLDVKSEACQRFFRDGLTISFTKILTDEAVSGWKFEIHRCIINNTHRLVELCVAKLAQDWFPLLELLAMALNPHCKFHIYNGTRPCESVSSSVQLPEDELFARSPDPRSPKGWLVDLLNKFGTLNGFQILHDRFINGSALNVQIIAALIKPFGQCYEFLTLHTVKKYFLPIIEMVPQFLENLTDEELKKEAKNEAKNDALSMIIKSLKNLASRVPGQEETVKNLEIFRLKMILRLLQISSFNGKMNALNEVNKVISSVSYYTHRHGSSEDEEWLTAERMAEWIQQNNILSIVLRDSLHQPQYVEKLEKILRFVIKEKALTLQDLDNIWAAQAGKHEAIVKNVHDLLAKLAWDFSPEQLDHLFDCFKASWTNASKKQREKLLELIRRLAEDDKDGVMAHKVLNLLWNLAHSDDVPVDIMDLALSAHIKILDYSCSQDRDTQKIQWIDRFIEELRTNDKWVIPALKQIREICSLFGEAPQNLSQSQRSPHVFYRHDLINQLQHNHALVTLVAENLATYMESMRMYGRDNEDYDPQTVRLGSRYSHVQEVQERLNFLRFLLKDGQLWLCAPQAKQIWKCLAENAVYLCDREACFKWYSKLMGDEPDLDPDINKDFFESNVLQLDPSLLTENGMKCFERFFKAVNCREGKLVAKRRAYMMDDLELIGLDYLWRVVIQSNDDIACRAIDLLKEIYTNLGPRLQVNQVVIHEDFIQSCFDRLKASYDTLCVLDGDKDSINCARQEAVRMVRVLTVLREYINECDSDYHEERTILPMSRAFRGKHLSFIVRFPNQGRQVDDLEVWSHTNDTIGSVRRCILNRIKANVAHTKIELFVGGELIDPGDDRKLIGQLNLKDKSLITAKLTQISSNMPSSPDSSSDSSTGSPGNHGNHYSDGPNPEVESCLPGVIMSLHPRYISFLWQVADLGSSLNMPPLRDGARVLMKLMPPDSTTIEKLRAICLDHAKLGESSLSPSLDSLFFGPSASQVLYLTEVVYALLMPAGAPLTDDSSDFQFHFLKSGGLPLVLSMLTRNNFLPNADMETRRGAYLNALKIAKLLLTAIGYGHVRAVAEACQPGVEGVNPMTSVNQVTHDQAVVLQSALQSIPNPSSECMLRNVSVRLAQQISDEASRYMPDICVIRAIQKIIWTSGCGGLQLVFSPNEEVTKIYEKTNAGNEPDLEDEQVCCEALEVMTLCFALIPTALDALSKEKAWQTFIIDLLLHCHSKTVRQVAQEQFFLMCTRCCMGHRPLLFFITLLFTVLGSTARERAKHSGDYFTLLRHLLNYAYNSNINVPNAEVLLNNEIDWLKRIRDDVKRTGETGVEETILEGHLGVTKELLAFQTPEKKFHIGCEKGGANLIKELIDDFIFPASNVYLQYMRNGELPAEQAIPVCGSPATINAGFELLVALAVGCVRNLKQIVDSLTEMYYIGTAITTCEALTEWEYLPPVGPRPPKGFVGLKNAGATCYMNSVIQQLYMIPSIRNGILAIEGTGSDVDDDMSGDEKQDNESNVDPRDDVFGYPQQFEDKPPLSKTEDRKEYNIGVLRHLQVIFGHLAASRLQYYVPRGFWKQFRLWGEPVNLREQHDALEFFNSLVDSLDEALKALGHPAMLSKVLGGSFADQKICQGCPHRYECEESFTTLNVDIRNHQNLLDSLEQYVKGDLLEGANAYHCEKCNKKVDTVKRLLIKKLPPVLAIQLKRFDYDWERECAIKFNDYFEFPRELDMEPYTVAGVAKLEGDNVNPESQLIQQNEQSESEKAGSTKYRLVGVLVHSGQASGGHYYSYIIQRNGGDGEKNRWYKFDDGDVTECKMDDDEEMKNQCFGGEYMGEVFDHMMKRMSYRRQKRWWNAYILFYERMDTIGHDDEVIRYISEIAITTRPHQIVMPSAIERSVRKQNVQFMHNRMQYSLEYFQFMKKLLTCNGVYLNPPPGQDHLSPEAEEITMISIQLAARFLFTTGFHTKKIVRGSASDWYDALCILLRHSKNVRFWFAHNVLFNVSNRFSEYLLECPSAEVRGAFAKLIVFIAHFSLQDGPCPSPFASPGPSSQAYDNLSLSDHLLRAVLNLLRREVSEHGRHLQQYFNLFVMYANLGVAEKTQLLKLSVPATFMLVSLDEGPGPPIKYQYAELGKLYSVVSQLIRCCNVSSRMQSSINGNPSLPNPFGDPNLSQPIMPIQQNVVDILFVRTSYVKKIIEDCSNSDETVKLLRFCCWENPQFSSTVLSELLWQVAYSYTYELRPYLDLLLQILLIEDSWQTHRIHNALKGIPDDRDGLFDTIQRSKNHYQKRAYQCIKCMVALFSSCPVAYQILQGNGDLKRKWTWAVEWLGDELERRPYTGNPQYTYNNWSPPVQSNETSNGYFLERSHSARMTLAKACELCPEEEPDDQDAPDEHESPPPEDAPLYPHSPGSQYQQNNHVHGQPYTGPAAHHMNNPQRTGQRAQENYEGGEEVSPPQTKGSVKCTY
UniProt P97386: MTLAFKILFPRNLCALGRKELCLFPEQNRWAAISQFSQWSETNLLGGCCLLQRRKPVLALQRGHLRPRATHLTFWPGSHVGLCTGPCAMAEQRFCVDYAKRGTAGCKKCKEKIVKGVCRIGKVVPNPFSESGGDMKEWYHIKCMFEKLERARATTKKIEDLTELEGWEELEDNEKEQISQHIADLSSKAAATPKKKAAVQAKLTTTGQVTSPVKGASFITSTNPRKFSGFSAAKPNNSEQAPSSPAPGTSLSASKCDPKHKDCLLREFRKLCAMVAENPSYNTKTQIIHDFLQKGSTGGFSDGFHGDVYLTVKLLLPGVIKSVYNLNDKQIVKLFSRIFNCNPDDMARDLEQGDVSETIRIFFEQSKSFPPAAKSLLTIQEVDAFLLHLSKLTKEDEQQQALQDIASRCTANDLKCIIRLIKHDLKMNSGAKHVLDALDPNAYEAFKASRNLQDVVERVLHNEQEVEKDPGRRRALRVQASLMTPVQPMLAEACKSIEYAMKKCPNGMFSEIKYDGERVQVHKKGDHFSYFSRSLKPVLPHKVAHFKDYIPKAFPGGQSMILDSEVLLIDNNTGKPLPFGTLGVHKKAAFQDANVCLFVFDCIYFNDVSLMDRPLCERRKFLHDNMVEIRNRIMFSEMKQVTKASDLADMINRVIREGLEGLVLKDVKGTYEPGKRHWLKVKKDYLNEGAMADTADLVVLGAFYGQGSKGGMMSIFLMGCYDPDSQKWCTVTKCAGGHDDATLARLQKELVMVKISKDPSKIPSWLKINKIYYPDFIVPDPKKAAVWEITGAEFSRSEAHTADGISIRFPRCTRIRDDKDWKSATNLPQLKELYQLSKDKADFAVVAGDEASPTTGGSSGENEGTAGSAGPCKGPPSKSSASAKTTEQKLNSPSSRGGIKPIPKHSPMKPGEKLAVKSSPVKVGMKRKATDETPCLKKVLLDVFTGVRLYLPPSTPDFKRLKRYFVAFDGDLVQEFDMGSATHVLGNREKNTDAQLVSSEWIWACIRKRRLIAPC
UniProt P98197: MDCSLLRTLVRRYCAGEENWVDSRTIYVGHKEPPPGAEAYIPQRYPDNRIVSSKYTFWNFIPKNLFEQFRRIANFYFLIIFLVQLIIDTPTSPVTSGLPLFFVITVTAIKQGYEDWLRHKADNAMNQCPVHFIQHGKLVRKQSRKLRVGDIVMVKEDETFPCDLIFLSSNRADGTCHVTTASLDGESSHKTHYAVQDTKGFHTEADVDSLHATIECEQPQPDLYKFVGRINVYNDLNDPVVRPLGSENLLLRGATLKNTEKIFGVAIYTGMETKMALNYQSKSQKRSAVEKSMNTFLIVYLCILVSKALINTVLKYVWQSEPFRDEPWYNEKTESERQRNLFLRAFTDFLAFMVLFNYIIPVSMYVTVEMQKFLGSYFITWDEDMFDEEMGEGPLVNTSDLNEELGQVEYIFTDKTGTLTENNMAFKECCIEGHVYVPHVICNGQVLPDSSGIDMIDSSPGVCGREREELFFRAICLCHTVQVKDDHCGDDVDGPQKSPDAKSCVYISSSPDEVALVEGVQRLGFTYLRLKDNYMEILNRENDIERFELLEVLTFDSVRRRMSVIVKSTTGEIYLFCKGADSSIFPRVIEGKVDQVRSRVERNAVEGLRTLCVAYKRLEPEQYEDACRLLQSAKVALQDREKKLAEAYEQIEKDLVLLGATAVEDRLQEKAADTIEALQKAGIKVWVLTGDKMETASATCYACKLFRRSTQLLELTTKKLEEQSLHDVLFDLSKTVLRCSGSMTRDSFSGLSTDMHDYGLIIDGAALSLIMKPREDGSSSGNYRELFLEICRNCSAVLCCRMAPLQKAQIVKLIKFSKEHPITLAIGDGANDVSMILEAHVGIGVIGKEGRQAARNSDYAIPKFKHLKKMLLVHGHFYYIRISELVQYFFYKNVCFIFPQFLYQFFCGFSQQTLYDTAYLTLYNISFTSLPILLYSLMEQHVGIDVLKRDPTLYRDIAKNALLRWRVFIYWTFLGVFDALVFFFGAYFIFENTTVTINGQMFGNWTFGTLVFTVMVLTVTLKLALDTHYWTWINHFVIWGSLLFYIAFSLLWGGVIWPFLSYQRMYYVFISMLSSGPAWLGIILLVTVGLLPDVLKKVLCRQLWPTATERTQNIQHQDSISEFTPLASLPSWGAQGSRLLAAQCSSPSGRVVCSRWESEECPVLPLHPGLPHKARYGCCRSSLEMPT
UniProt P85094: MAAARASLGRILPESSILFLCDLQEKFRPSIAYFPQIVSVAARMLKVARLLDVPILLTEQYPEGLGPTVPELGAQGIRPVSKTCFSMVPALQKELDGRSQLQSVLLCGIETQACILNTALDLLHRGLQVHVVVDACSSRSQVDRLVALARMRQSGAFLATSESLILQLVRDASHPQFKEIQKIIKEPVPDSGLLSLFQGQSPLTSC
UniProt P97807: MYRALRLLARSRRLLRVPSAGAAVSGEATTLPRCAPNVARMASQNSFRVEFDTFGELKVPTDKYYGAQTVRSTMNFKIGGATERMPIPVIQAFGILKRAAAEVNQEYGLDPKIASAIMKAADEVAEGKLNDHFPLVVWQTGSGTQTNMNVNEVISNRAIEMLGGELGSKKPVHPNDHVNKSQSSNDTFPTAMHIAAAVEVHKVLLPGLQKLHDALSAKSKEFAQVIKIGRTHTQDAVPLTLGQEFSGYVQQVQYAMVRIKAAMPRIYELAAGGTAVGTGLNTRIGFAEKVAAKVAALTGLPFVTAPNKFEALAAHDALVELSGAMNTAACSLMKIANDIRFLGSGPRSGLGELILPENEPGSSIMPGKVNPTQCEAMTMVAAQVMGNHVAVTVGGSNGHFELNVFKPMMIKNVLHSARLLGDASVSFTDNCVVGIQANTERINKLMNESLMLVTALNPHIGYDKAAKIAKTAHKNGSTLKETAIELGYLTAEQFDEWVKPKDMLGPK

compound: CN[C@@H]1C[C@H]2O[C@@](C)([C@@H]1OC)n1c3ccccc3c3c4c(c5c6ccccc6n2c5c31)C(=O)NC4 [staurosporine]; assay: log2 fold change of tryptic peptide abundance, ligand vs vehicle (limited proteolysis) (log2 ratio); higher = more trypsin-susceptible (destabilized); conditions: ligand concentration: 20 uM; sample: mouse liver crude lysate; replicate design: treated separately

Row | Target | log2 fold change
1 | UniProt Q00558 (peptide sequence: AVGQPAAAAGHFQR, peptide start residue: 154) | -0.641
2 | UniProt P98086 (peptide sequence: RGDEVWIEKDPAK, peptide start residue: 211) | -0.221
3 | UniProt P97303 (peptide sequence: TDYTPLAGNYGQPHVGQK, peptide start residue: 382) | -0.326
4 | UniProt P70191 (peptide sequence: KFEKELK, peptide start residue: 287) | -0.194
5 | UniProt P70398 (peptide sequence: WVVPVLPK, peptide start residue: 84) | -0.335
6 | UniProt P97386 (peptide sequence: SLKPVLPHK, peptide start residue: 534) | -0.385
7 | UniProt P98197 (peptide sequence: GADSSIFPR, peptide start residue: 564) | -0.152
8 | UniProt P85094 (peptide sequence: DASHPQFK, peptide start residue: 171) | -0.165
9 | UniProt P70206 (peptide sequence: MVSEIYLTR, peptide start residue: 1672) | 0.151
10 | UniProt P97807 (peptide sequence: RAAAEVNQEYGLDPK, peptide start residue: 98) | -0.466
11 | UniProt P99027 (peptide sequence: ILDSVGIEADDDRLNK, peptide start residue: 26) | -0.101
